Article PMC4510650, “TD-60 links RalA GTPase function to the CPC in mitosis” (Nature Communications, 2015)
Results are given in words; binding and its absence hold for the method and conditions named. Binding seen in cells or lysates may run through a third protein. Some entries that bind do so weakly or less than the wild type. Where a sequence is shown, tags or fusion partners need not be part of it.

The chains behind the UniProt entries cited, without tags or fusion partners.
UniProt Q9P258: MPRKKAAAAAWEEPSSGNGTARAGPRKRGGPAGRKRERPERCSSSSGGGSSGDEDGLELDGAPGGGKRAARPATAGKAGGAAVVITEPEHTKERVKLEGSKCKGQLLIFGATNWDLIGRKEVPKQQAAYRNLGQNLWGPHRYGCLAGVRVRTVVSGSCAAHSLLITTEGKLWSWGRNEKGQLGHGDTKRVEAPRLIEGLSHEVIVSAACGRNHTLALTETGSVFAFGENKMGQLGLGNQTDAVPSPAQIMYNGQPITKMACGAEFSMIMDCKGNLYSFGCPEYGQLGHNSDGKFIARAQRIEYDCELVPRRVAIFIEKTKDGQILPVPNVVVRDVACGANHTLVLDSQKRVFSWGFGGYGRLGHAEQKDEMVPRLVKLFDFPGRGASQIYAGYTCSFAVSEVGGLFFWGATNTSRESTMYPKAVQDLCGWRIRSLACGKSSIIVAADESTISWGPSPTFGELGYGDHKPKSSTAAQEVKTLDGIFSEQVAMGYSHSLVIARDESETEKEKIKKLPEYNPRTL

Target: T1, GFP-tagged RalA G26A (GDP-locked) (human) (UniProt P11233)
T1 sequence: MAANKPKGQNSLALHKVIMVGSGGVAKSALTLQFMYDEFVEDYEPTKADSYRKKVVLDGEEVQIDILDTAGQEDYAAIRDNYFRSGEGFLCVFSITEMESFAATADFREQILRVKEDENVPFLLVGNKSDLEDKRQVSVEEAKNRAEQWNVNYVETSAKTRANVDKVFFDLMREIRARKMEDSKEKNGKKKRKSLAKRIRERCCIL
Test: co-IP; GFP-Trap-M magnetic beads on lysates of transfected HeLa Kyoto cells (48 h); lysis buffer 50 mM Tris pH 8.0, 0.4 M NaCl, 0.5% NP-40, 0.5% deoxycholate; immunoblot for GFP and TD-60/RCC2

Substance: endogenous TD-60 (from UniProt Q9P258 1-522)
- binding: binds
